Hit rate of the full screen: of about 410,000 compounds, about 310 (0.076%) were called active. The shares of active, inactive and inconclusive entries below differ from those in the screen. Calls follow the shape of the dose curve; as a rule, active = well fitted activation curve with a large enough effect; inconclusive = small, poorly fitted or top-dose-only effect, or another doubt; inactive = no such curve, though single readings can be large or run the other way. Where the call is inconclusive, the potency comes from a doubtful curve fit.
biological target: Parathyroid hormone/parathyroid hormone-related peptide receptor (Homo sapiens) (UniProt Q03431); assay: qHTS for PTHR1 Agonists: Primary Screen; conditions: HEK293 GP2 PTHR1 cells, GloSensor cAMP luminescence, 1 h; activation: at 115 µM (top of the series) unless noted; series mostly up to 115 µM; also: nearly all actives have a fitted effect of over 55% in size
Summary of the method: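 HEK-293-derived GP2 cells expressing PTHR1 and a GloSensor cAMP reporter, 3,000/well, plated overnight, given luciferin plus IBMX (each 0.5 mM as added) for 1 h at 37 °C, then compound for 1 h at 37 °C. Luminescence was read after 15 min at room temperature.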
Potency is read from the fitted curve at half-maximal effect.

Sequences of proteins named here, by UniProt entry; tags and fusion partners are left off. A change or cut given only in a name is not applied to a line headed by its entry.
UniProt Q03431: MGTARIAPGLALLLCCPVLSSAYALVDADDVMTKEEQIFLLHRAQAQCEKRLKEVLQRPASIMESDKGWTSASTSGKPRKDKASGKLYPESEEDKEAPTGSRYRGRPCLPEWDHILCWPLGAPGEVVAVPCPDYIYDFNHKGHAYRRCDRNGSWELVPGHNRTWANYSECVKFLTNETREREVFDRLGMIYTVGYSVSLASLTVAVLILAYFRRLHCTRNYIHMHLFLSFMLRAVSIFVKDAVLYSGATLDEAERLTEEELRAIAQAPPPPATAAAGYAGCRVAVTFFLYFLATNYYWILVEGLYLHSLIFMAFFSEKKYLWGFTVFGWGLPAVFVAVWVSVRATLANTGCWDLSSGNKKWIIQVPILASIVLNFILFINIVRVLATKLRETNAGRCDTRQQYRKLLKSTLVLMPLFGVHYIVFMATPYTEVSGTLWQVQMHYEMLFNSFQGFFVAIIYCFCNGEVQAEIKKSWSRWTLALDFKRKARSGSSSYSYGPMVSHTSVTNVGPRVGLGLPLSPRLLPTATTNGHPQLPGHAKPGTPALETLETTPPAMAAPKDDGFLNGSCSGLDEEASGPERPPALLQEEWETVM

**Q.** `CN1CCN(c2ncnc(Cl)c2N)CC1` was tested. Which Potency did it give?
**A.** inconclusive: 39.8 µM [activator, partial curve, poor fit]

**Q.** `CNS(=O)(=O)c1ccc(N=Cc2c(O)n(-c3ccc(C)cc3)c(=O)[nH]c2=O)cc1` was tested. Which Potency did it give?
**A.** inconclusive: 31.6 µM [activator, partial curve, poor fit]

**Q.** For `CC(C)Cc1nc2cccnc2n1C1CCNCC1`, which “activation” value is on record?
**A.** inactive: -4.18%

**Q.** For `CC1(C)CC(n2[nH]c(=O)c3c2NC(=O)CSC3c2ccccc2)CCO1` (stereo unspecified), which Potency is on record?
**A.** inconclusive: 141 µM [activator, single point]

**Q.** How did the “activation” value turn out when `COc1ccccc1N1CCN(Cc2ccc(Cl)cc2Cl)CC1` was run?
**A.** inactive: -3.45% [at 57.5 µM]

**Q.** `CCOC(=O)c1c(-c2ccccc2)oc2ccc(OC(=O)N(C)C)cc12` was tested. Which Potency did it give?
**A.** inconclusive: 31.6 µM [activator, single point]

**Q.** How did the activation turn out when `COP(=O)(OC)C(Nc1ccccc1)c1ccccc1` (stereo unspecified) was run?
**A.** inconclusive: 31.4% [activator]

**Q.** How did the Potency turn out when `CCOP(=O)(OCC)c1nc(-c2ccc(F)cc2)oc1NCc1ccccc1` was run?
**A.** inconclusive: 5.01 µM [activator, full curve, poor fit]

**Q.** `CC1(C)OC(c2ccccc2)=C/C(=C/C=C2C(=O)NC(=S)NC2=O)O1` was tested. Which “activation” value did it give?
**A.** inactive: -22.8%

**Q.** For `O=C(CN1C(=O)CN=C(c2ccccc2)c2ccccc21)Nc1cccc(C(F)(F)F)c1`, which “outcome” value is on record?
**A.** inactive

**Q.** How did the Potency turn out when `CCC(=Nc1ccc(OC)cc1OC)c1c(O)[nH]c(=O)[nH]c1=O` was run?
**A.** inconclusive: 8.91 µM [activator, partial curve]

**Q.** Which Potency does the source give for `C(=C\c1ccncc1)/c1ccncc1` here?
**A.** inconclusive: 50.1 µM [activator, partial curve]

**Q.** How did the Potency turn out when `C=CCn1c(O)c(C(C)=NCCc2c[nH]c3ccccc23)c(=O)[nH]c1=O` was run?
**A.** inconclusive: 28.2 µM [activator, partial curve, poor fit]

**Q.** `CC(=O)OC1CCC2(C)C(CCC3C2CC(=O)C2(C)C3CC(N3CC3)C2C(C)=O)C1` (stereo unspecified) was tested. Which Potency did it give?
**A.** active: 50.1 µM

**Q.** For `COc1ccccc1CN1CCCC(C(=O)c2ccccc2SC)C1` (stereo unspecified), which “activation” value is on record?
**A.** inactive: -17.8%

**Q.** Which Potency does the source give for `Cc1ccc(S(=O)(=O)NN)c(C)c1N1CCCC1=O` here?
**A.** inconclusive: 126 µM [activator, single point]

**Q.** How did the “outcome” value turn out when `Oc1cc2c(cc1CN1CCN(c3ccccc3)CC1)CCC2` was run?
**A.** inactive

**Q.** `CCCNc1nc(OC)nc(N2CC3CC(C2)c2cccc(=O)n2C3)n1` (stereo unspecified) was tested. Which Potency did it give?
**A.** inconclusive: 5.01 µM [activator, partial curve, poor fit]

**Q.** With `Cc1sc2c(c1C)C(c1cccs1)=NCC(=O)N2CC(=O)NCc1cccs1` as the compound, how does the Potency read?
**A.** inconclusive: 35.5 µM [activator, single point]

**Q.** `O=c1[nH]c(=O)n(C2CCCCCC2)c(O)c1C=NCCCN1CCOCC1` was tested. Which “activation” value did it give?
**A.** inactive: -1.86%

**Q.** With `Oc1c(Br)cc(Br)cc1Br` as the compound, how does the “activation” value read?
**A.** inactive: -19.9%

**Q.** How did the “activation” value turn out when `Clc1ccc(CSC(Cn2ccnc2)c2ccc(Cl)cc2Cl)cc1` (stereo unspecified) was run?
**A.** inactive: -5.92%

**Q.** `O=[N+]([O-])c1ccc(N2CCCCC2)c2ncccc12` was tested. Which “activation” value did it give?
**A.** inactive: -22.2%

**Q.** How did the activation turn out when `CN1CCN(c2ccc([N+](=O)[O-])cc2Cl)CC1` was run?
**A.** inconclusive: 33% [activator]

**Q.** `CCN1CCN(C(=O)Cc2coc3ccc4ccccc4c23)CC1` was tested. Which Potency did it give?
**A.** inconclusive: 39.8 µM [activator, single point]

**Q.** Which “activation” value does the source give for `Cc1ccc(C(=O)Nc2nc3ccccc3[nH]2)cc1` here?
**A.** inactive: -41.3%

**Q.** `CC12CC1(C)C(=O)N(c1cc(Cl)cc(Cl)c1)C2=O` (stereo unspecified) was tested. Which Potency did it give?
**A.** inconclusive: 141 µM [activator, single point]

**Q.** `Cc1ccc(Cl)cc1Nc1nn2c(=O)c3ccc(C(=O)NCc4cccs4)cc3nc2s1` was tested. Which Potency did it give?
**A.** inconclusive: 56.2 µM [activator, partial curve, poor fit]

**Q.** With `Cn1c(=O)cc(OCC(=O)N2CCC3(CC2)OCCO3)c2ccccc21` as the compound, how does the Potency read?
**A.** inconclusive: 35.5 µM [activator, single point]

**Q.** How did the Potency turn out when `O=[N+]([O-])c1ccc(-c2ccc(C=Nc3cccc4ccccc34)o2)cc1` was run?
**A.** inconclusive: 5.01 µM [activator, single point]

**Q.** How did the “activation” value turn out when `CC(C)(O)C(=O)Nc1ccc([N+](=O)[O-])c(C(F)(F)F)c1` was run?
**A.** inactive: -23.2%

**Q.** `COC(=O)C(O)(c1ccc(NC(=O)c2cccs2)cc1)C(F)(F)F` (stereo unspecified) was tested. Which “activation” value did it give?
**A.** inactive: -38.8%

**Q.** For `O=P(O)(O)Cc1ccccc1OP(=O)(c1ccccc1)c1ccccc1`, which Potency is on record?
**A.** inconclusive: 50.1 µM [activator, partial curve, poor fit]

**Q.** Which Potency does the source give for `O=C(NCC1=C(c2ccc3ccccc3c2)C[C@@H]2CC[C@H]1N2Cc1ccco1)c1ccc([N+](=O)[O-])cc1` here?
**A.** inconclusive: 35.5 µM [activator, partial curve, poor fit]

**Q.** Which Potency does the source give for `Cc1cccc(C)c1NC(=O)Cn1c(=O)n(CC2CCC(C(=O)NCCc3ccccc3)CC2)c(=O)c2ccccc21` (stereo unspecified) here?
**A.** inconclusive: 10 µM [activator, partial curve, poor fit]

**Q.** Which Potency does the source give for `COc1cc(N2CCOCC2)ccc1C=C1C(=O)NC(=O)NC1=O` here?
**A.** inconclusive: 56.2 µM [activator, partial curve, poor fit]

**Q.** For `CC(C)N1C(=O)CC2(CC[N+](C)(CCOC(=O)C(O)(c3ccccc3)c3ccccc3)CC2)C1=O` (stereo unspecified), which Potency is on record?
**A.** inconclusive: 39.8 µM [activator, single point]

**Q.** How did the Potency turn out when `CCn1c(O)c(N=Nc2ccc(S(=O)(=O)N3CCOCC3)cc2)c(=O)n(CC)c1=S` was run?
**A.** inconclusive: 50.1 µM [activator, partial curve, poor fit]

**Q.** With `Cc1cccc(C(=O)NC(Oc2ccccc2)C(Cl)(Cl)Cl)c1` (stereo unspecified) as the compound, how does the activation read?
**A.** inconclusive: 12.9% [activator] [at 57.5 µM]

**Q.** With `O=C(Nc1ccc(OC(F)(F)F)cc1)Oc1ccccc1N1CCOCC1` as the compound, how does the Potency read?
**A.** inconclusive: 20 µM [activator, single point]

**Q.** `CN(C)P1(N(C)C)=Nc2c(c(N)nn2C)C(c2ccccc2)=N1` was tested. Which Potency did it give?
**A.** inconclusive: 2.24 µM [activator, full curve, poor fit]

**Q.** Which Potency does the source give for `Cc1ccc(C2CN(C)CC2C(=O)c2ccc(F)cc2)cc1` (stereo unspecified) here?
**A.** inconclusive: 89.1 µM [activator, partial curve, poor fit]

**Q.** Which activation does the source give for `COC(=O)C1=C(c2c(C)noc2C)C[C@@H]2CC[C@H]1N2C(=O)NCc1ccc(F)cc1` here?
**A.** inconclusive: 44.1% [activator]

**Q.** How did the Potency turn out when `NC(=O)c1ccc(N=Cc2c(O)n(Cc3ccco3)c(=O)[nH]c2=O)cc1` was run?
**A.** inconclusive: 126 µM [activator, single point]

**Q.** For `O=C(O)Cn1cc(C=C2C(=O)NC(=O)NC2=O)c2ccccc21`, which Potency is on record?
**A.** inconclusive: 15.8 µM [activator, partial curve]

**Q.** How did the “activation” value turn out when `CCOC(=O)c1ccccc1C(=O)OCC` was run?
**A.** inactive: -22.4%

**Q.** `COc1cc2c(c(OC)c1O)-c1ccc(OC)c(=O)cc1C(NC(=O)C(F)(F)F)CC2` (stereo unspecified) was tested. Which Potency did it give?
**A.** inconclusive: 0.767 µM [activator, full curve]

**Q.** With `Cc1ccc(Cn2nnnc2CN2CCC(n3nnc4cc(C)ccc43)CC2)cc1` as the compound, how does the “outcome” value read?
**A.** inactive

**Q.** For `COC(=O)C(O)(c1ccc2c(c1)CCCN2)C(F)(F)F` (stereo unspecified), which Potency is on record?
**A.** inconclusive: 0.316 µM [activator, full curve, poor fit]

**Q.** How did the Potency turn out when `CCOC(=O)C1CCN(Cc2c(F)cccc2Cl)CC1` was run?
**A.** inconclusive: 39.8 µM [activator, single point]

**Q.** `O=[N+]([O-])c1oc2ccc3ccccc3c2c1CCO` was tested. Which “outcome” value did it give?
**A.** inactive

**Q.** How did the “activation” value turn out when `COC(=O)C1=C(c2cccc(Cl)c2)C[C@@H]2CC[C@H]1N2C(=O)NCC1CC1` was run?
**A.** inactive: -24.4%

**Q.** For `CC1=CC(=C2C(=O)NC(=O)NC2=O)C=C(C(F)(F)F)N1C(C)C`, which Potency is on record?
**A.** active: 28.2 µM

**Q.** Which “activation” value does the source give for `CCOC(C(=O)OCCC[N+](C)(CC)CC)(c1ccccc1)c1ccccc1` here?
**A.** inactive: 11.6% [at 57.5 µM]

**Q.** For `CN1CCN(c2cc(N3CCCC3)c([N+](=O)[O-])cc2F)CC1`, which “outcome” value is on record?
**A.** inactive

**Q.** How did the Potency turn out when `COc1cc(CN2CC(C)OC(C)C2)cc(OC)c1` (stereo unspecified) was run?
**A.** inconclusive: 28.2 µM [activator, single point]

**Q.** `Oc1ccc(C[C@H]2NCCc3cc(O)c(O)cc32)cc1O` was tested. Which activation did it give?
**A.** inconclusive: 33.9% [activator]

**Q.** How did the “activation” value turn out when `c1cc2c(cc1CN1CCNCC1)OCO2` was run?
**A.** inactive: -6.47%

**Q.** How did the Potency turn out when `CN1C(=O)C(Cc2nc3ccccc3c(=O)n2-c2ccccc2)c2ccccc21` (stereo unspecified) was run?
**A.** inconclusive: 7.94 µM [activator, partial curve, poor fit]

**Q.** With `CCCn1cc(C(=O)O)cn1` as the compound, how does the Potency read?
**A.** inconclusive: 44.7 µM [activator, partial curve, poor fit]

**Q.** Which Potency does the source give for `CC(Cc1ccc(O)cc1)NCC(O)c1cc(O)cc(O)c1` (stereo unspecified) here?
**A.** inconclusive: 2.51 µM [activator, partial curve, poor fit]

**Q.** Which “activation” value does the source give for `Cn1cnc(CCN)c1` here?
**A.** inactive: -10.1%

**Q.** How did the “outcome” value turn out when `COc1cc2c(cc1O)[C@@H]1Cc3ccc(OC)c(O)c3CN1CC2` was run?
**A.** inactive

**Q.** With `CC/C(=N\Nc1ccccc1)c1c(O)n(-c2ccc(OC)cc2)c(=O)[nH]c1=O` as the compound, how does the “activation” value read?
**A.** inactive: -29.7%

**Q.** How did the Potency turn out when `CCCCCCN1CCN(c2ccccc2Cl)CC1` was run?
**A.** inconclusive: 141 µM [activator, single point]

**Q.** For `C/C1=C\[C@@H](C)C/C=C/[C@H]2[C@@H]3O[C@]3(C)[C@@H](C)[C@H]3[C@H](Cc4c[nH]c5ccccc45)NC(=O)[C@]32C(=O)/C=C/C(=O)[C@@H]1O`, which “activation” value is on record?
**A.** inactive: -39.9%

**Q.** `COc1ccc(OC)c(-n2c(O)c(C=NCCN3CCNCC3)c(=O)[nH]c2=S)c1` was tested. Which Potency did it give?
**A.** inconclusive: 141 µM [activator, single point]

**Q.** With `O=Cc1c(C(=O)O)n(Cc2ccccc2F)c2ccccc12` as the compound, how does the “outcome” value read?
**A.** inactive

**Q.** `CN1CCCC(C(=O)c2ccc(Cl)cc2)C1` (stereo unspecified) was tested. Which Potency did it give?
**A.** inconclusive: 44.7 µM [activator, partial curve]

**Q.** For `CN1C(=O)NC(c2cccc(O)c2)C(C(=O)c2cccs2)C1(O)C(F)(F)F` (stereo unspecified), which Potency is on record?
**A.** inconclusive: 39.8 µM [activator, single point]

**Q.** For `Cc1c(Cl)cccc1N1C(=O)NC(=O)/C(=C\c2cc(C)n(-c3cccc(C(=O)O)c3C)c2C)C1=O`, which Potency is on record?
**A.** inconclusive: 15.8 µM [activator, partial curve]

Reference: PubChem BioAssay AID743266 (National Center for Advancing Translational Sciences (NCATS), 2014)
